At least one structure is not confirmed: it was looked up by name or label, or the drawing left a doubt.
Test: Spontaneous hydrolysis of cocaine benzoyl ester in phosphate buffer without esterase
Format: physicochemical
Conditions: phosphate buffer pH 8.0 at 37°, after 12 hrs, absence of esterase

COC(=O)[C@H]1[C@@H](OC(=O)c2ccccc2)C[C@@H]2CC[C@H]1N2C [cocaine]
extent of spontaneous hydrolysis: less than 5%

Source: US6566084B1, “Catalytic antibodies against cocaine and methods of using and producing same” (priority 1992, dated 2003)
